Laboratory results: publication PMC7819943, “Rice protein-binding microarrays: a tool to detect cis-acting elements near promoter regions in rice”
The list shows a part of the results.

molecular target: T1, OsSMF1 (Oryza sativa, UniProt Q6ZLB0 1-436); assay: protein-binding microarray (RPBM); PBS, 2% BSA, 51.3 ng/ul salmon testes DNA, 50 uM zinc acetate, 200 nM TF, 25 C, 1 h; high values mean tight binding; conditions: protein: recombinant; tags: N-terminal polyhistidine and DsRed monomer fusion (pET32a); chain copies: 2; label: CyDye5-dUTP incorporated in the synthesized complementary strand; 3' TTTTT single-stranded linker to array surface; dsDNA, one strand shown
T1 sequence: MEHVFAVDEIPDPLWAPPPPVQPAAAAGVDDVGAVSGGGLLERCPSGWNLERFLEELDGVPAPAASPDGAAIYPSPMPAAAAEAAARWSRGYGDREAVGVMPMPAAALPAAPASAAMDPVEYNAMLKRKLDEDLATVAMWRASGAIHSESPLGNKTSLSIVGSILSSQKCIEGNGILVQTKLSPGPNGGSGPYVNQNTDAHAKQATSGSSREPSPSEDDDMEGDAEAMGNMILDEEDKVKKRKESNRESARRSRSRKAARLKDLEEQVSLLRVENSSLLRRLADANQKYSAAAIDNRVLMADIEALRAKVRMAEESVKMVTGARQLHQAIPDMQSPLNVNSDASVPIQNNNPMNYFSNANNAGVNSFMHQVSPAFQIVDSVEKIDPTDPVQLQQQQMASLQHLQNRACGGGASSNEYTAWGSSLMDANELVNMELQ
Summary of the method: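 Binding signal is defined as the fluorescence intensity of each feature in arbitrary units, read on an Axon 4000B scanner. Transcription factors with N-terminal polyhistidine and DsRed fusions came from E. coli BL21-CodonPlus and were purified on Ni–NTA. They were incubated at 200 nM for 1 h at 25 °C on a custom Agilent array that had been made double-stranded with Cy5-dUTP, with 50 µM zinc acetate present, and the array was washed.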

Row | Sequence | binding signal
1 | CTCGCTCCCTTCCTCGCCGTCATCAGCCGCGGCTGCCGCCCGGAGTCACCTAGTGCAG | 3850 fluorescence intensity (a.u.)
2 | CACTTGGATTAATGCGAAAATCCACGTGGAATACAACTCACGGAGTCACCTAGTGCAG | 6730 fluorescence intensity (a.u.)
3 | GTGGGTGATCAACATGTCACAGAATATACGAGCCGGTATGCGGAGTCACCTAGTGCAG | 9030 fluorescence intensity (a.u.)
4 | CTTATATCCGTGTGCATGGGCCATAACTTTACTCAGTTTACGGAGTCACCTAGTGCAG | 4040 fluorescence intensity (a.u.)
5 | GAAGGCTAAAACAACTTGGGTAGACCTGCTGGGCTGCCACCGGAGTCACCTAGTGCAG | 36400 fluorescence intensity (a.u.)
6 | CCCGAGAGTCACGTGACACCTCACCCTTCCATTAGAAAAGCGGAGTCACCTAGTGCAG | 3260 fluorescence intensity (a.u.)
7 | AGCCTTGTCATGTAAACCTATCCTTTTGAGACACGTGCGTCGGAGTCACCTAGTGCAG | 5780 fluorescence intensity (a.u.)
8 | CGCCTTCAATGCATCATCTTCGCCTCTCGACTCAATCTGCCGGAGTCACCTAGTGCAG | 3480 fluorescence intensity (a.u.)
9 | CAAATTCGCGATTCTCTCATCTAATCCTCCTCCTCCTCCCCGGAGTCACCTAGTGCAG | 4480 fluorescence intensity (a.u.)
10 | CACCCCTAGACACCTGTAGCTGCTAGCTCACATCATTTTGCGGAGTCACCTAGTGCAG | 4890 fluorescence intensity (a.u.)
11 | ACCCATTCACCAATGATTGGATCACTCAAAGCCAAAGACCCGGAGTCACCTAGTGCAG | 27900 fluorescence intensity (a.u.)
12 | ATCGTATCATTCTAGACGGAATGGAGATGGTACTGTTGGACGGAGTCACCTAGTGCAG | 35600 fluorescence intensity (a.u.)
13 | GGTCATACGTGTCATATTGCCCCTCAGTTATGCATTCATACGGAGTCACCTAGTGCAG | 10700 fluorescence intensity (a.u.)
14 | CTTTTAAGTATAGTAGTAGTAGATTGAGGTAGCTGGTTATCGGAGTCACCTAGTGCAG | 3570 fluorescence intensity (a.u.)
15 | ACATCAAACATGCACGCGGATCATCCACGTGCCAAGACGGCGGAGTCACCTAGTGCAG | 5580 fluorescence intensity (a.u.)
16 | CCACCCCGACCTGACCTAACCCACCACCTCCTCGGCGCCGCGGAGTCACCTAGTGCAG | 7900 fluorescence intensity (a.u.)
17 | GATCAAGCGGCGGTACTTCCGACAGGACCACGGCGACAAGCGGAGTCACCTAGTGCAG | 3330 fluorescence intensity (a.u.)
18 | GTGTTCACCTGTTCGGGCTCGTGCTTACCAGCTAGGGTAACGGAGTCACCTAGTGCAG | 3320 fluorescence intensity (a.u.)
19 | GACTAAATGAATAAAATGACAGGAGGTGATGGGTAAAATTCGGAGTCACCTAGTGCAG | 22000 fluorescence intensity (a.u.)
20 | CTTCAGCGTCCTACGTGTAAGCTAGAGAAGCCACGTGGCTCGGAGTCACCTAGTGCAG | 10800 fluorescence intensity (a.u.)
21 | TTGATCAATATATAGCTGTCTGGTTTTATGCTCTCCAGCTCGGAGTCACCTAGTGCAG | 4790 fluorescence intensity (a.u.)

Some of the entries above, set out differently:
Row	Sequence	binding signal
1	CTCGCTCCCTTCCTCGCCGTCATCAGCCGCGGCTGCCGCCCGGAGTCACCTAGTGCAG	3850 fluorescence intensity (a.u.)
2	CACTTGGATTAATGCGAAAATCCACGTGGAATACAACTCACGGAGTCACCTAGTGCAG	6730 fluorescence intensity (a.u.)
3	GTGGGTGATCAACATGTCACAGAATATACGAGCCGGTATGCGGAGTCACCTAGTGCAG	9030 fluorescence intensity (a.u.)

Next part.

Row | Sequence | binding signal
22 | GGAGGCCGTCGTCGCCATGGAGGTCGTCGTGGCGACAGCGCGGAGTCACCTAGTGCAG | 3870 fluorescence intensity (a.u.)
23 | CTTCTCGGAGGCACACCAGGTCACCAGCACGTGTGCAAGCCGGAGTCACCTAGTGCAG | 4050 fluorescence intensity (a.u.)
24 | TGATTTCATGGACCTAATGGGCCGTGTCTTCGTGGGCCGACGGAGTCACCTAGTGCAG | 3510 fluorescence intensity (a.u.)
25 | TGTACGACACGCGCGTCGATCGGATCACTCGCACTAAATTCGGAGTCACCTAGTGCAG | 3270 fluorescence intensity (a.u.)
26 | AGATAAGACATGCCTCGTCGGATCGATATAATCGCCTTAGCGGAGTCACCTAGTGCAG | 3650 fluorescence intensity (a.u.)
27 | GGAGATAAGGGTGTCCATGGTGTCACCGAGGGCAATGAGGCGGAGTCACCTAGTGCAG | 4700 fluorescence intensity (a.u.)
28 | TCCGTGCTACAGCTAGCTACAGATATGTAGTCCGTCATTCCGGAGTCACCTAGTGCAG | 45200 fluorescence intensity (a.u.)
29 | GAGGTACATGGTGGCATGCTCGAGGGCGTCCGGCCGGATACGGAGTCACCTAGTGCAG | 3390 fluorescence intensity (a.u.)
30 | AAATGAGTGGGCGACAACGTTGACACGGCACCAAACGCCTCGGAGTCACCTAGTGCAG | 5750 fluorescence intensity (a.u.)
31 | ATTGCAAAATTCGTTTCCAATATCGGCTATAATTTTGTAGCGGAGTCACCTAGTGCAG | 25600 fluorescence intensity (a.u.)
32 | TGCACTATTCTATATTATATTATGCAAGTTTATTTTACGACGGAGTCACCTAGTGCAG | 3260 fluorescence intensity (a.u.)
33 | TTCTTGAATTGCTGGAGAGGGGTGGGGAAGAAAGATCGGGCGGAGTCACCTAGTGCAG | 3500 fluorescence intensity (a.u.)
34 | TTAATCAGACTAGTAGAATCGCCGGGTACCCACATGCCTGCGGAGTCACCTAGTGCAG | 20100 fluorescence intensity (a.u.)
35 | GCCCTTTACAGTGCTCCTACGTGGGCGAGTTGCCAAGTGCCGGAGTCACCTAGTGCAG | 3430 fluorescence intensity (a.u.)
36 | ATAATTTTATTGCAATAAACCTTATAGTATAGTATATGAGCGGAGTCACCTAGTGCAG | 21600 fluorescence intensity (a.u.)
37 | GCCATCTAGTTCCTCCTACCACCACGTCCTCTTTTCCTGCCGGAGTCACCTAGTGCAG | 5520 fluorescence intensity (a.u.)
38 | CCGGGCGTTGTGTTTGGCTGGCCGTACGTCCCCTTCGACTCGGAGTCACCTAGTGCAG | 3370 fluorescence intensity (a.u.)
39 | TATTTAAGTCAGTACTAAAGCACACATGTACAAATTTTACCGGAGTCACCTAGTGCAG | 4160 fluorescence intensity (a.u.)
40 | CTTCCATTCCAACCCCAATTAGCACTAGATCGTCATCGCTCGGAGTCACCTAGTGCAG | 3200 fluorescence intensity (a.u.)
41 | TTTCAGCCCGGTTTTATCTGACGTGGTGGCTGAATCAGCACGGAGTCACCTAGTGCAG | 14500 fluorescence intensity (a.u.)
42 | GTTTTATGGTTGGAGGTCATGAATCATACTCGTGTCATAGCGGAGTCACCTAGTGCAG | 7410 fluorescence intensity (a.u.)
